Test results: patent US10071983B2, “Activatable fluorogenic compounds and uses thereof as near infrared probes” (Ramot at Tel-Aviv University Ltd., priority 2011, dated 2018)
Where “and” joins values, the source holds several entries; their conditions need not be identical. Equal values may be shown once. At least one compound was matched to its structure with a doubt left. Some entries share one result that the patent states for a list of compounds.

Legend:
[1] = UV-Vis absorption spectrum of dye compounds; format: physicochemical; conditions: Table 1, first λmax column (absorption peaks)
Description: (§1) Compound 1 (which generates the dye compound QCy7 deprotonation) was obtained as an orange crystalline powder. FIGS. 4A and 4B present the UV-Vis spectrum of Compound 1 (FIG. 4A), compared to that of the acetate Compound 3 (FIG. 4B). […] The obtained large stokes shift between the excitation and the emission wavelengths of about 150 nm is a desirable feature for fluorescence probes, which assists in increasing the signal-to-noise ratio.
Compound 14 is composed from a phenol latent donor and two different acceptors; a picolinium moiety and an indolium moiety (see, Scheme 3). Deprotonation of the phenolic dye leads to formation of new donor-acceptor pair fluorochrome.
Compound 18 is composed of a phenol latent donor and two identical acceptors based on a picolinium moiety (see, Scheme 4). Deprotonation of the phenolic form leads to formation of new donor-acceptor pair fluorochrome.
Compound 25 is composed of a phenol latent donor and three acceptors; two picolinium moieties and one indolium moiety (see, Scheme 5). Deprotonation of the phenolic compound leads to formation of three resonance donor-two-acceptor structures of new fluorochrome.
The chemical 2D structures and spectroscopic data obtained for exemplary dye molecules according to embodiments of the present invention are presented in Table 1.

[2] = NIR fluorescence emission spectrum of dye compounds; format: physicochemical; conditions: Table 1, λmax (fluorescence emission)
Description: as §1
(§2) FIG. 5 presents the data obtained for fluorescence intensity vs. wavelength of standard sample (Cresyl violet; FIG. 5A), and test sample (QCy7; FIG. 5B), at the indicated concentrations. The measurements were performed in a 1 cm cuvette using Fluoromax-3 fluorometer; at an excitation wavelength of 560 nm. Cresyl violet was dissolved in methanol and Compound 1 in PBS 7.4 (just generating QCy7).
(§3) FIG. 8 presents the data obtained for fluorescence intensity vs. wavelength of standard sample (QCy7; FIG. 8A), and test sample (Sulfo-QCy7, generated from Compound 9; FIG. 8B), at the indicated concentrations. The measurements were performed at a 96-wells plate reader using Fluoromax-3 fluorometer; at an excitation wavelength of 560 nm. Both samples were dissolved in PBS 7.4.

[3] = Fluorescence quantum yield calculation against a reference dye; format: physicochemical; conditions: PBS 7.4
Experimental: Cresyl-violet-perchlorate (as presented hereinbelow) was chosen as a reference compound for the determination of QCy7 quantum yield.
as §2
Conversion to the absolute quantum yield is achieved through the following equation: ΦX=ΦST(GradX/GradST)(η^2X/η^2ST) where the subscripts ST and X denote standard and test respectively, Φ is the fluorescence quantum yield, Grad the gradient from the plot of integrated fluorescence intensity vs. absorbance (see, FIG. 6), and η the refractive index of the solvents. ΦCresyl-violet=0.55 [Stefan et al. ([…]) J. Phys. Chem. 86, 1738-1742]. […]
as §3, with “Both samples were dissolved in PBS 7.4.” left out
The absolute quantum yield was calculated as described hereinabove and found to be: […]

[4] = known cyanines, for comparison; cited from earlier work

CC1(C)C(/C=C/c2cc(/C=C/C3=[N+](CCCS(=O)(=O)[O-])c4ccc5ccccc5c4C3(C)C)cc(/C=C/C3=[N+](CCCS(=O)(=O)[O-])c4ccccc4C3(C)C)c2O)=[N+](CCCS(=O)(=O)[O-])c2ccccc21 [Compound 32]
λmax [1]: 350 nm and 550 nm
λmax [2]: 660 nm
quantum yield [3]: 6%

CCN1/C(=C/C=C/C=C/C2=[N+](CCCCCC(=O)O)c3ccc(S(=O)(=O)O)cc3C2(C)C)C(C)(C)c2cc(S(=O)(=O)[O-])ccc21 [Cy5]
Stokes shift between excitation and emission wavelengths [4]: 10-20 nm

CCN1C(=CC=CC=CC=CC2=[N+](CCCCCC(=O)O)c3ccc(S(=O)(=O)O)cc3C2(C)C)C(C)(C)c2cc(S(=O)(=O)[O-])ccc21 [Cy7]
Stokes shift between excitation and emission wavelengths [4]: 10-20 nm
